The supplement of paper PMC10849652
This is one part of the list.

Sequences of proteins named here, by UniProt entry; tags and fusion partners are left off. A change or cut given only in a name is not applied to a line headed by its entry.
UniProt O75387: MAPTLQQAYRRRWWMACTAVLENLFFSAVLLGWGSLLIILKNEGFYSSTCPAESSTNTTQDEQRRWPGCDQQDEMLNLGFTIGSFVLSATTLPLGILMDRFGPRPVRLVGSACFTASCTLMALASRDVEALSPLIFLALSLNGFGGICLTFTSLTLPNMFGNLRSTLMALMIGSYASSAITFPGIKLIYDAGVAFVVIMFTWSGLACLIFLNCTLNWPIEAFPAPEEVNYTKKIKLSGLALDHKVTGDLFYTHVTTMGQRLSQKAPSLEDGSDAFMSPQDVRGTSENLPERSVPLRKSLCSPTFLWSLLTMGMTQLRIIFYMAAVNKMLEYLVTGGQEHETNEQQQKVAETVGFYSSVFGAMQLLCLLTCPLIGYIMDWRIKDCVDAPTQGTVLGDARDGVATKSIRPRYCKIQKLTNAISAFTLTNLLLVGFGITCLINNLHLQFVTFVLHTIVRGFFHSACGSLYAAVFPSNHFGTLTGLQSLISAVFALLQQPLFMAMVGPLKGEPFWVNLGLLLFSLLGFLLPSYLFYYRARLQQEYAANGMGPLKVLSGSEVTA
UniProt Q9C0K1: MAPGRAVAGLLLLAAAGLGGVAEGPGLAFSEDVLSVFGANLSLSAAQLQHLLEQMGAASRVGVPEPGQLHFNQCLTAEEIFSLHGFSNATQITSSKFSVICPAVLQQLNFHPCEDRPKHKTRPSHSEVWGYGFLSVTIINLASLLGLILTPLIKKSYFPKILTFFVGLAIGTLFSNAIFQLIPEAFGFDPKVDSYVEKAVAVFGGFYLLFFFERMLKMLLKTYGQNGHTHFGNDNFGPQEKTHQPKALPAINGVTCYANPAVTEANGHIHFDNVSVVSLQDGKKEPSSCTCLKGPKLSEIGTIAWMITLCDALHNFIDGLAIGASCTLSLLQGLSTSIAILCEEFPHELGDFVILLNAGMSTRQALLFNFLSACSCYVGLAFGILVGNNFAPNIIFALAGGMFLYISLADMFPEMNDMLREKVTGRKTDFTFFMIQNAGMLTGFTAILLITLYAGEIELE
UniProt Q14542: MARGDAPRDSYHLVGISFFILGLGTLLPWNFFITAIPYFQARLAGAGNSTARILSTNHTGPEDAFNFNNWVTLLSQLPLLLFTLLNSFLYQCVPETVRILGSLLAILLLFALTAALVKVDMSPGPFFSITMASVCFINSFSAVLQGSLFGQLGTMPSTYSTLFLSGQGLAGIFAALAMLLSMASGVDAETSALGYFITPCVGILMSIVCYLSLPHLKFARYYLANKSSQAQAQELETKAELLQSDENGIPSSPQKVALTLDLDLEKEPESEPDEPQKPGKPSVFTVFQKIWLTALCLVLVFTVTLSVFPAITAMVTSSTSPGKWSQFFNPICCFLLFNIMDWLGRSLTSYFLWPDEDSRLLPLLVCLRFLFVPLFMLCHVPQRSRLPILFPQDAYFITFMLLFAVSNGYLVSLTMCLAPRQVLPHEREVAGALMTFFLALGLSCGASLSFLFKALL
UniProt Q9NYZ2: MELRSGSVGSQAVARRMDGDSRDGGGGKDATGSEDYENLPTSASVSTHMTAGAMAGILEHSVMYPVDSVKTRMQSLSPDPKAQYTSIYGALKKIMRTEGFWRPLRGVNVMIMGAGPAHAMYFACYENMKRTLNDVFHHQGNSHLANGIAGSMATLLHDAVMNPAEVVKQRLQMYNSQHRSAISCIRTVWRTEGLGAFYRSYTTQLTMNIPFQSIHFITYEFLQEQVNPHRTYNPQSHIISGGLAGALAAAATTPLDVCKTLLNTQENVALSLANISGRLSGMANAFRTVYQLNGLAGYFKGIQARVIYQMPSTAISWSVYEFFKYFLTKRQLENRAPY
UniProt Q9H936: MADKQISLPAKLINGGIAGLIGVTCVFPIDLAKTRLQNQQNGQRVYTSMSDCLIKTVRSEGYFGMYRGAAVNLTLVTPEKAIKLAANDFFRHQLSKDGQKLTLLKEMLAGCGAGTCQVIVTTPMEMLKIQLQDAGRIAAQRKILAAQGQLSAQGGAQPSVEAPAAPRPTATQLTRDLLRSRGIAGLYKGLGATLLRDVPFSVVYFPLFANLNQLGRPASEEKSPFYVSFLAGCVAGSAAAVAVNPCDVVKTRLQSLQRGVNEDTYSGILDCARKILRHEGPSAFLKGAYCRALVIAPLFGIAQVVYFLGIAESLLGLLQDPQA
UniProt P16260: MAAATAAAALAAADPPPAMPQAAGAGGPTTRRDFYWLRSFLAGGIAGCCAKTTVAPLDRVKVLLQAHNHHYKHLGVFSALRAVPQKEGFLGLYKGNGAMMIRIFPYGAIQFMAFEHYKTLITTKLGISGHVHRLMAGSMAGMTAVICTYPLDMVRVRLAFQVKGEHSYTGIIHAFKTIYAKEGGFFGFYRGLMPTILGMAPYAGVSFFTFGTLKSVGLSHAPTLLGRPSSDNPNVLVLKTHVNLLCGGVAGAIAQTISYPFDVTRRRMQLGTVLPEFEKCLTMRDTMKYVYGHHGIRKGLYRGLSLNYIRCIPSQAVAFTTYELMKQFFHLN
UniProt Q9BSK2: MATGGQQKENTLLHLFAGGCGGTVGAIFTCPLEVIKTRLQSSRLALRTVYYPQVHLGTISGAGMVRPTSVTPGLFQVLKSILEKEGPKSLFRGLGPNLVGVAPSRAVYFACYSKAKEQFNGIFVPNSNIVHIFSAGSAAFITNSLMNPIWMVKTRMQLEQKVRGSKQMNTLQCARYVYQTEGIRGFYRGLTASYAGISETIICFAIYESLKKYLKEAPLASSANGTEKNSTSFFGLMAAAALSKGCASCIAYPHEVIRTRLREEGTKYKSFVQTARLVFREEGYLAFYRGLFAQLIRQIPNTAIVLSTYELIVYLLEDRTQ
UniProt P78381: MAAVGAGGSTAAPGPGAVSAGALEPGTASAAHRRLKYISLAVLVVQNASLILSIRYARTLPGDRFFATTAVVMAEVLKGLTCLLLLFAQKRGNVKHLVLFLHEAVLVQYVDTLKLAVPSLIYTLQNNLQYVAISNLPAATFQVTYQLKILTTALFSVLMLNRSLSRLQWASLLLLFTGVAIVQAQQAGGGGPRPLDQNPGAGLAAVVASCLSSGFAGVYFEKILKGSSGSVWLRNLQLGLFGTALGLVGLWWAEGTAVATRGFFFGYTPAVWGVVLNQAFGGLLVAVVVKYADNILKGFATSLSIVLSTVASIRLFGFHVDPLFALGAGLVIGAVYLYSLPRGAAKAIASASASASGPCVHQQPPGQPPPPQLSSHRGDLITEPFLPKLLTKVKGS
UniProt Q5BKX6: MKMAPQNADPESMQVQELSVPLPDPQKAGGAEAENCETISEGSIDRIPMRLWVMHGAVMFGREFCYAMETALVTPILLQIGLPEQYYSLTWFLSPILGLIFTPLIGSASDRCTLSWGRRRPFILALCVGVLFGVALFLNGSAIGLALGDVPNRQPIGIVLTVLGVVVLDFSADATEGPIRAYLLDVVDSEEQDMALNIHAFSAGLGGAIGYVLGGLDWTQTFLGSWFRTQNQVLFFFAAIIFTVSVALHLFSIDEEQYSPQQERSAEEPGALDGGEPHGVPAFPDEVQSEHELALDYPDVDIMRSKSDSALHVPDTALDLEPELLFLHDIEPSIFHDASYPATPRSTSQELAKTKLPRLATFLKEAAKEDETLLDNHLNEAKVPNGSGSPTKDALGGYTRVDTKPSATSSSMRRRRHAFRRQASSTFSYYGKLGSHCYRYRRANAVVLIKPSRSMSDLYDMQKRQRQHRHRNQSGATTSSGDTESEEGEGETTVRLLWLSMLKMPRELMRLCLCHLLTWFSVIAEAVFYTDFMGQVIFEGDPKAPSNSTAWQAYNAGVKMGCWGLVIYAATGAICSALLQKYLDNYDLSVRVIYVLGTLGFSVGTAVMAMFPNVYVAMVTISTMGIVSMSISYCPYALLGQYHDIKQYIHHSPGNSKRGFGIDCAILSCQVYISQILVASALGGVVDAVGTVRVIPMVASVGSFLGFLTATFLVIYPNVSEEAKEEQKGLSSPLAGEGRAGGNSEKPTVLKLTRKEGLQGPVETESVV
UniProt Q9Y619: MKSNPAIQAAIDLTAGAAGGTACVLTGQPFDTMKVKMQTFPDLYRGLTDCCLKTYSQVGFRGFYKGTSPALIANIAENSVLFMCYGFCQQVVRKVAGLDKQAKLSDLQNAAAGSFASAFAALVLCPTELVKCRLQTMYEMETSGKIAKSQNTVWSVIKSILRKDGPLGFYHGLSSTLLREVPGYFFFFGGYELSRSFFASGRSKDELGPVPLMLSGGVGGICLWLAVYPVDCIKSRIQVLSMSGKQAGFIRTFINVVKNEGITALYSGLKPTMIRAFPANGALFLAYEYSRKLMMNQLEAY
UniProt P48029: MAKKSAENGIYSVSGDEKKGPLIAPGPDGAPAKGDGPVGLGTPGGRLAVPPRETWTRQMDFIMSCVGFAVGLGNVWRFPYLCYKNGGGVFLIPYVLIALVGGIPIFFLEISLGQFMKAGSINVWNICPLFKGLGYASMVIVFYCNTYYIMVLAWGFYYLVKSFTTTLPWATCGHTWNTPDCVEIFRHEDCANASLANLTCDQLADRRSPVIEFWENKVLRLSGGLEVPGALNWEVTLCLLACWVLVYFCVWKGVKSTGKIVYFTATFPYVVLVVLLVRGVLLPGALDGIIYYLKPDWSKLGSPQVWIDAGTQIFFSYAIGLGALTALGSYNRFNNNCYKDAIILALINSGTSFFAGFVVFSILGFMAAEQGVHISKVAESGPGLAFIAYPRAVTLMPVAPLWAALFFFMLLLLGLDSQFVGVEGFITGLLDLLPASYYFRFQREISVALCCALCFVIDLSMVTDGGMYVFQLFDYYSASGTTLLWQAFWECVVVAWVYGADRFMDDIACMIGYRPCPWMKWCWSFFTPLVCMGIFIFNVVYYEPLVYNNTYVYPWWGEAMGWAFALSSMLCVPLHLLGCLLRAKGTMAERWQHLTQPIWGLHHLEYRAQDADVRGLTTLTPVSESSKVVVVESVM
UniProt Q8WUM9: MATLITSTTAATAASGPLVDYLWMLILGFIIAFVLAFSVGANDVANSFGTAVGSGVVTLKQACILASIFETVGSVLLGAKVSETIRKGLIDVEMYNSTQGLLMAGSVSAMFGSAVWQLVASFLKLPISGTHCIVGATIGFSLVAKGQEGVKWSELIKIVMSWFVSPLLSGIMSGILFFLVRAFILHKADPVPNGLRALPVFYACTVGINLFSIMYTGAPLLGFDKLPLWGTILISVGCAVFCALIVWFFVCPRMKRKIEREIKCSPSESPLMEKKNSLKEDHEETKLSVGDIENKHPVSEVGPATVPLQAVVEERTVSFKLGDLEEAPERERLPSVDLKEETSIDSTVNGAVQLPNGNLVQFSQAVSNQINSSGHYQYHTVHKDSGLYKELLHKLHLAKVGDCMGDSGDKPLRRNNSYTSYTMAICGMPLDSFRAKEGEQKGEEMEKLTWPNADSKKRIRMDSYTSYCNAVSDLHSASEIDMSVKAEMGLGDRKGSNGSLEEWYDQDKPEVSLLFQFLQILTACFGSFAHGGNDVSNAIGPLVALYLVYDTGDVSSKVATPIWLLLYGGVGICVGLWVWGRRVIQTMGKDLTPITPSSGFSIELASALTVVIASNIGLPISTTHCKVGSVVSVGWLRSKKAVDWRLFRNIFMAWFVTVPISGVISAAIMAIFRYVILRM
UniProt Q9NRA2: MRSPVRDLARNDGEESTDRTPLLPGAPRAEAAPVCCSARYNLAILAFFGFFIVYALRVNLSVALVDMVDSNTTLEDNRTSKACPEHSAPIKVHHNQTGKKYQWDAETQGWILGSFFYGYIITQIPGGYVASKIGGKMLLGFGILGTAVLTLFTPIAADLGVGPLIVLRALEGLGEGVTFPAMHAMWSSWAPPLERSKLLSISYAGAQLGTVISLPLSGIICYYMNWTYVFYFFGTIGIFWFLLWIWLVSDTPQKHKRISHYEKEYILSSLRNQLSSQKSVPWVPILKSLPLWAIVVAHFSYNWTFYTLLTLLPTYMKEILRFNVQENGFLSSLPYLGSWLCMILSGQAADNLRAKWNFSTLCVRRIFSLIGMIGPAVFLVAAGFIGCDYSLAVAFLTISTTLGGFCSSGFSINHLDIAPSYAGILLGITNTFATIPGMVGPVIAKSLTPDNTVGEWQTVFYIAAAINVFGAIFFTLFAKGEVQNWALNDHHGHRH
UniProt Q9Y6M5: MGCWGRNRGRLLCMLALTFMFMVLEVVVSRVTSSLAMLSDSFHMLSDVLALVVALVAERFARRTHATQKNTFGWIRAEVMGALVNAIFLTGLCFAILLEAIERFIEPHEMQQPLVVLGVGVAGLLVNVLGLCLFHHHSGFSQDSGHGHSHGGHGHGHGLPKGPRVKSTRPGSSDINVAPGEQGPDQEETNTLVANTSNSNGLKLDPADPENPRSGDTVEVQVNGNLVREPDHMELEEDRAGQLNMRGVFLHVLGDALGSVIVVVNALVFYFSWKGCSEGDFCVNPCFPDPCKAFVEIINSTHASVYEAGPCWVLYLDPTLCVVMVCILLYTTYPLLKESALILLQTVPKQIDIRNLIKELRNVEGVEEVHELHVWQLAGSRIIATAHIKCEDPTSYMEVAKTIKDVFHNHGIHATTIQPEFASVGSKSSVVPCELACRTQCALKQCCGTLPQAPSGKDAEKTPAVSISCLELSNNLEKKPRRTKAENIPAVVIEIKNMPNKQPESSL

Assays:
Assay in all cases: log2 fold change, soluble protein after heating vs DMSO (PISA); higher = thermal stabilisation; K562 cells, 10 uM, 30 min; active = over 0.2 and 3.5 SD of the protein, either way, in both replicates (recomputed)
[1] = compound: NC(=O)Nc1cc(-c2cccc(F)c2)sc1C(=O)N[C@H]1CCCNC1
How it was run: (§1)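 Thermal stability values are relative to control samples and come from duplicates. They are expressed as log2 fold changes. For measurement, K562 cells (2×10^6 cells/mL) received 10 μM compound for 30 min, and aliquots were heated for 3 min over 48°C-58°C, pooled, and extracted at 4°C in PBS with 0.5% NP-40. Soluble protein, the supernatant after 21,000xg for 90 min, was quantified by TMTpro 16plex LC-MS/MS with equalised channel sums.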

[2] = compound: NC(=O)c1cnc(N[C@@H]2CCCC[C@@H]2N)nc1Nc1cccc(-n2nccn2)c1
How it was run: as §1

[3] = compound: NC1(c2ccc(-c3nc4ccn5c(=O)[nH]nc5c4cc3-c3ccccc3)cc2)CCC1
How it was run: as §1

[4] = compound: NCC(=O)Nc1ccc(-n2nc(C(F)(F)F)cc2-c2ccc3c(ccc4ccccc43)c2)cc1
How it was run: as §1

entinostat = compound: Nc1ccccc1NC(=O)c1ccc(CNC(=O)OCc2cccnc2)cc1 [entinostat]
How it was run: as §1

vorinostat = compound: O=C(CCCCCCC(=O)Nc1ccccc1)NO [vorinostat]
How it was run: as §1

citarinostat = compound: O=C(CCCCCCNC(=O)c1cnc(N(c2ccccc2)c2ccccc2Cl)nc1)NO [citarinostat]
How it was run: as §1

silmitasertib = compound: O=C(O)c1ccc2c(c1)nc(Nc1cccc(Cl)c1)c1ccncc12 [silmitasertib]
How it was run: as §1

[5] = compound: O=C1NC(=O)C(c2cnc3ccccn23)=C1c1cn2c3c(cc(F)cc13)CN(C(=O)N1CCCCC1)CC2
How it was run: as §1

[6] = compound: c1cc(OCCN2CCCCC2)cc(-c2n[nH]c3ccc(-c4nnc[nH]4)cc23)c1
How it was run: as §1

entospletinib = compound: c1cn2cc(-c3ccc4cn[nH]c4c3)nc(Nc3ccc(N4CCOCC4)cc3)c2n1 [entospletinib]
How it was run: as §1

Measured: log2 fold change

SLC43A1 (UniProt O75387)
inactive: [1] 0.002 | [2] 0.058 | [3] 0.025 | [4] -0.093 | entinostat -0.086 | vorinostat -0.067 | citarinostat 0.016 | silmitasertib -0.014 | [5] 0.005 | [6] -0.014 | entospletinib 0.056

SLC39A8 (UniProt Q9C0K1)
inactive: [1] -0.053 | [2] 0.014 | [3] -0.155 | [4] -0.01 | entinostat 0.043 | vorinostat 0 | citarinostat -0.027 | silmitasertib 0.051 | [5] 0.03 | [6] -0.073 | entospletinib 0.091

SLC29A2 (UniProt Q14542)
inactive: [1] -0.081 | [2] 0.148 | [3] 0.081 | [4] 0.022 | entinostat -0.027 | vorinostat 0.046 | citarinostat 0.017 | silmitasertib -0.03 | [5] 0.086 | [6] -0.028 | entospletinib -0.015

SLC25A37 (UniProt Q9NYZ2)
inactive: [1] -0.016 | [2] 0.028 | [3] 0.009 | [4] 0.032 | entinostat -0.024 | vorinostat 0.044 | citarinostat -0.002 | silmitasertib 0.095 | [5] -0.09 | [6] -0.046 | entospletinib 0.053

SLC10A4 (UniProt Q96EP9)
inactive: [1] -0.072 | [2] -0.262 | [3] -0.066 | [4] -0.342 | entinostat 0.011 | vorinostat -0.018 | citarinostat -0.109 | silmitasertib 0.22 | [5] -0.003 | [6] -0.069 | entospletinib -0.048

SLC25A22 (UniProt Q9H936)
inactive: [1] -0.02 | [2] 0 | [3] 0.011 | [4] -0.055 | entinostat -0.012 | vorinostat -0.064 | citarinostat 0.021 | silmitasertib 0.006 | [5] -0.05 | [6] -0.049 | entospletinib 0

SLC25A16 (UniProt P16260)
inactive: [1] -0.018 | [2] 0.043 | [3] -0.082 | [4] 0 | entinostat -0.085 | vorinostat 0.033 | citarinostat -0.035 | silmitasertib 0.009 | [5] 0.078 | [6] 0.023 | entospletinib 0.048

SLC39A14 (UniProt Q15043)
inactive: [1] -0.037 | [2] 0.071 | [3] -0.001 | [4] -0.002 | entinostat -0.081 | vorinostat -0.026 | citarinostat 0.022 | silmitasertib -0.011 | [5] -0.02 | [6] 0.03 | entospletinib 0.007

SLC33A1 (UniProt O00400)
inactive: [1] -0.022 | [2] 0.004 | [3] -0.023 | [4] 0.1 | entinostat 0.015 | vorinostat -0.047 | citarinostat 0.111 | silmitasertib 0 | [5] 0.008 | [6] -0.088 | entospletinib 0.01

SLC4A1AP (UniProt Q9BWU0)
inactive: [1] -0.032 | [2] -0.058 | [3] -0.051 | [4] -0.075 | entinostat -0.027 | vorinostat -0.01 | citarinostat 0.059 | silmitasertib 0.055 | [5] -0.03 | [6] -0.031 | entospletinib -0.036

SLC25A33 (UniProt Q9BSK2)
inactive: [1] 0.039 | [2] 0.027 | [3] 0.011 | [4] -0.026 | entinostat 0.03 | vorinostat -0.044 | citarinostat -0.019 | silmitasertib -0.004 | [5] -0.006 | [6] -0.057 | entospletinib -0.041

SLC35A2 isoform 4 (UniProt P78381)
inactive: [1] -0.004 | [2] -0.17 | [3] -0.007 | [4] 0 | entinostat -0.025 | vorinostat -0.034 | citarinostat -0.004 | silmitasertib 0.019 | [5] 0.028 | [6] -0.039 | entospletinib -0.011

SLC25A5 (UniProt P05141)
inactive: [1] 0.024 | [2] -0.004 | [3] 0.111 | [4] 0.019 | entinostat -0.04 | vorinostat 0.001 | citarinostat -0.04 | silmitasertib -0.013 | [5] -0.044 | [6] 0.012 | entospletinib 0.04

SLC29A1 isoform 2 (UniProt Q99808)
inactive: [1] -0.082 | [2] 0.094 | [3] 0.094 | [4] 0.078 | entinostat -0.051 | vorinostat 0.048 | citarinostat 0.023 | silmitasertib 0.023 | [5] 0.006 | [6] -0.067 | entospletinib -0.001

SLC25A32 (UniProt Q9H2D1)
inactive: [1] -0.012 | [2] -0.01 | [3] -0.009 | [4] 0.002 | entinostat -0.02 | vorinostat -0.037 | citarinostat -0.003 | silmitasertib 0.062 | [5] -0.061 | [6] -0.072 | entospletinib -0.029

Two records drawn at random from the list so far, as already listed:
SLC25A5 (UniProt P05141)
inactive: [1] 0.024 | [2] -0.004 | [3] 0.111 | [4] 0.019 | entinostat -0.04 | vorinostat 0.001 | citarinostat -0.04 | silmitasertib -0.013 | [5] -0.044 | [6] 0.012 | entospletinib 0.04

SLC35A2 isoform 4 (UniProt P78381)
inactive: [1] -0.004 | [2] -0.17 | [3] -0.007 | [4] 0 | entinostat -0.025 | vorinostat -0.034 | citarinostat -0.004 | silmitasertib 0.019 | [5] 0.028 | [6] -0.039 | entospletinib -0.011

(further entries)

SLC35B2 (UniProt Q8TB61)
inactive: [1] -0.023 | [2] -0.047 | [3] -0.027 | [4] 0.013 | entinostat -0.019 | vorinostat -0.002 | citarinostat 0.016 | silmitasertib -0.011 | [5] -0.034 | [6] 0.03 | entospletinib 0.059

SLC45A4 isoform 3 (UniProt Q5BKX6)
inactive: [1] -0.049 | [2] -0.08 | [3] 0.089 | [4] 0.195 | entinostat -0.049 | vorinostat -0.115 | citarinostat 0.111 | silmitasertib -0.016 | [5] -0.134 | [6] -0.186 | entospletinib 0.055

SLC12A4 (UniProt Q9UP95)
inactive: [1] 0.024 | [2] 0.067 | [3] -0.126 | [4] 0.013 | entinostat 0.014 | vorinostat -0.001 | citarinostat 0.031 | silmitasertib 0 | [5] -0.032 | [6] -0.036 | entospletinib -0.006

SLC25A15 (UniProt Q9Y619)
inactive: [1] 0.036 | [2] -0.025 | [3] -0.018 | [4] -0.009 | entinostat -0.035 | vorinostat -0.089 | citarinostat 0.031 | silmitasertib 0.019 | [5] -0.008 | [6] -0.102 | entospletinib -0.02

SLC38A1 (UniProt Q9H2H9)
inactive: [1] -0.06 | [2] 0.029 | [3] 0.052 | [4] 0.007 | entinostat -0.033 | vorinostat -0.01 | citarinostat 0.047 | silmitasertib 0.061 | [5] -0.022 | [6] -0.103 | entospletinib -0.016

SLC6A8 (UniProt P48029)
inactive: [1] -0.019 | [2] 0.101 | [3] 0.105 | [4] -0.054 | entinostat -0.121 | vorinostat -0.135 | citarinostat -0.045 | silmitasertib 0.075 | [5] -0.049 | [6] -0.027 | entospletinib -0.006

SLC20A1 (UniProt Q8WUM9)
inactive: [1] -0.089 | [2] -0.032 | [3] 0 | [4] -0.098 | entinostat -0.065 | vorinostat -0.064 | citarinostat -0.015 | silmitasertib 0.006 | [5] 0.062 | [6] -0.109 | entospletinib 0.027

SLC17A5 (UniProt Q9NRA2)
inactive: [1] 0.08 | [2] -0.013 | entinostat 0.008 | citarinostat -0.044 | [6] -0.063 | entospletinib -0.031

SLC7A1 (UniProt P30825)
inactive: [1] -0.092 | [2] 0.039 | [3] -0.049 | [4] -0.058 | entinostat -0.039 | vorinostat -0.037 | citarinostat -0.036 | silmitasertib 0.015 | [5] -0.001 | [6] -0.085 | entospletinib -0.045

SLC27A1 (UniProt Q6PCB7)
inactive: [1] 0.026 | [2] -0.012 | [3] -0.016 | [4] 0.038 | entinostat -0.013 | silmitasertib -0.039 | [5] 0.014

SLC30A1 (UniProt Q9Y6M5)
inactive: [1] -0.114 | [2] 0.135 | [3] 0.025 | [4] 0.144 | entinostat -0.003 | vorinostat -0.012 | citarinostat 0.02 | silmitasertib 0.026 | [5] -0.002 | [6] -0.039 | entospletinib 0.019
